This passage reports binding results from article PMC9779928, “Tartrate resistant acid phosphatase 5 (TRAP5) mediates immune cell recruitment in a murine model of pulmonary bacterial infection” (Frontiers in Immunology, 2022).

The chains behind the UniProt entries cited, without tags or fusion partners. Residues count along the entry.
UniProt P10451, residues 17-314: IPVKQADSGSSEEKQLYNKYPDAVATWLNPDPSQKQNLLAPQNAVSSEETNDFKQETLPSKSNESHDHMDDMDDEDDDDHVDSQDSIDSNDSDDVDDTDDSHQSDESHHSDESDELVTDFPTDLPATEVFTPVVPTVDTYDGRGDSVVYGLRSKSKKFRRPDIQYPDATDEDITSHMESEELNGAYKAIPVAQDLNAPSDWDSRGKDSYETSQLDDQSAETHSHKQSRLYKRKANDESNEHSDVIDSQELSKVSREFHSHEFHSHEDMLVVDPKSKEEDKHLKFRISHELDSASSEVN
UniProt P13686, residues 22-325: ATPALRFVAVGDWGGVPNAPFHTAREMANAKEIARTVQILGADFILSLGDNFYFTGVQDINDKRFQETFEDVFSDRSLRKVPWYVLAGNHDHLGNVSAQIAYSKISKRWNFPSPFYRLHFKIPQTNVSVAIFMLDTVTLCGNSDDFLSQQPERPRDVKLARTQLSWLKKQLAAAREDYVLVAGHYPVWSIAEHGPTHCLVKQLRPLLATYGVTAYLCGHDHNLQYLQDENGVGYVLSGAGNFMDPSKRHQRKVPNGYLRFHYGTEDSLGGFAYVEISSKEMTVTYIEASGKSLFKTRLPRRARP

Results are given in words; binding and its absence hold for the method and conditions named. In cells and extracts the contact can be indirect. Some results given as binding are weak or reduced against the parent protein; the word gives no strength.

The assay addresses osteopontin (endogenous in human lung tissue) (human (endogenous in lung tissue)) (UniProt P10451). The assay can be described thus: proximity ligation; Navinci proximity ligation on formalin-fixed paraffin sections of human lung (CF and control donors); rabbit anti-OPN serum and murine monoclonal anti-TRAP5; chromogenic read-out.

For “tartrate resistant acid phosphatase 5, isoform 5a (endogenous in human lung tissue) (from UniProt P13686 22-325) (enzyme)”, the binding result is reported as “binds”.
